Test results published in paper PMC11264595.
No constants are given. Whether binding was seen depends on the method and setting. Binding seen in cells or lysates may run through a third protein.

By UniProt entry, the sequences of proteins in these tests, tags left out.
UniProt P22363: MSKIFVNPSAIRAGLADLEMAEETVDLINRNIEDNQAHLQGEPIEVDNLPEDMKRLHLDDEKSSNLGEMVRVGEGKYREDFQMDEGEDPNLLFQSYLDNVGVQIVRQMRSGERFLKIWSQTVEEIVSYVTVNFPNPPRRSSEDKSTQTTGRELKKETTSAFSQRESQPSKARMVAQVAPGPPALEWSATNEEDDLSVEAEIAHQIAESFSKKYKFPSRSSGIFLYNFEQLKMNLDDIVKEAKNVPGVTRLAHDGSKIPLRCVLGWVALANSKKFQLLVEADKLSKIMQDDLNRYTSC
UniProt P61586: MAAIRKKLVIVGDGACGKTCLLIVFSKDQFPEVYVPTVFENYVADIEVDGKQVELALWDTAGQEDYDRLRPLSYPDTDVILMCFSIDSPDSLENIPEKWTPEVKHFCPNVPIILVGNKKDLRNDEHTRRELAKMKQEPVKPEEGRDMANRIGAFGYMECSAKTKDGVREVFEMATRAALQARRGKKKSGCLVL
UniProt P60953: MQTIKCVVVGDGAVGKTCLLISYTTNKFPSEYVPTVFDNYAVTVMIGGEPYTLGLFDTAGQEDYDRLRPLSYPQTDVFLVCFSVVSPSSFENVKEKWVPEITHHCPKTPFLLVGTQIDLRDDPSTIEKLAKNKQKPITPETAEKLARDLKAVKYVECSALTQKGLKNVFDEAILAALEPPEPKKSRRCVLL

Target: Flag-tagged RABV phosphoprotein (P), full length (rabies virus) (UniProt P22363)
Assay: co-IP

| Substance | binding |
| --- | --- |
| GFP-RhoA wild type (Transforming protein RhoA) (from UniProt P61586 1-193) | no binding |
| GFP-Cdc42 wild type (Cell division control protein 42 homolog) (from UniProt P60953 1-191) | no binding |
